In all, about 1,400 compounds went through this assay and about 50 (4%) were called active.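 Rule for the calls: active = fitted curve reaches 30% CPE protection at or below the top valid dose, with every test run called active; inconclusive = test runs disagree, some active and some not; inactive = every test run inactive, including effects in the wrong direction.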 This is one part of the list. Measured potencies and affinities stand elsewhere.
Assay: Dengue virus 2 cytopathic effect protection, dose response, BHK-21 cells, ATP luminescence, cherry-pick (AID 687031);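 note: 0% = infected DMSO wells and 100% = uninfected cell wells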
Conditions: BHK-21 DENV2 CPE protection, 5 d; at 19.5 µM (top of the series) unless noted

CPE protection (higher = active), inactive:
CCOc1cc(CNCCN2CCOCC2)ccc1OCc1ccccc1Cl 4.31%
Cc1ccc(S(=O)(=O)N2CC[C@@H]3[C@H](CO)Nc4ccc(-c5ccccc5F)cc4[C@@H]32)cc1 -34.1%
O=C(c1cccc(-c2cccc3nccn23)c1)N1CCOCC1 -4.39%
COc1ccc(NC(=O)N(C)C[C@@H]2Oc3ccc(NS(=O)(=O)c4c(C)noc4C)cc3C(=O)N([C@H](C)CO)C[C@@H]2C)cc1 -6.55% [at 21 µM]
CN1C(=O)c2cc(NC(=O)Cc3cccs3)ccc2OC[C@@H]2O[C@H](CC(=O)NCC3CCCCC3)CC[C@H]21 -6.86%
O=C(NN1C(=O)NC2(CCCCC2)C1=O)c1cc(F)cc(F)c1 -5.84%
Cc1cc(C)n2c(NC3CCCC3)c(-c3cccnc3)nc2n1 7.61%
C[C@H](CO)N1C[C@H](C)[C@@H](CN(C)S(C)(=O)=O)Oc2ccc(NC(=O)Nc3ccccc3)cc2C1=O -10.2%
CC(O)(c1cccc(F)c1)c1nc(/C=C/c2ccccc2)cs1 (stereo not drawn) -3.71%
COc1cccc(OC)c1Nc1nc(C)nc2c1nnn2Cc1ccccc1Cl -19.1%
O=C(C[C@H]1C[C@@H]2c3cc(NC(=O)CC4CC4)ccc3O[C@@H]2[C@H](CO)O1)NCc1ccccc1 -5.22%
O=C(Nc1ccc2nc3n(c(=O)c2c1)CCCC3)c1ccccc1F -4.72%
Cc1ccc(S(=O)(=O)N2CCN(C(=O)COC(=O)Cc3ccc(Cl)cc3)CC2)c(C)c1 -8.53%
COc1ccc(COC(=O)C2=C(C)NC(=O)NC2c2ccc(F)cc2)cc1 (stereo not drawn) -0.484%
Cc1nc2c(OCCC3CCCCC3)cccn2c1N(C)C(=O)CCC1CCCC1 -6.23%
CCCCN1C(N)=NC[C@@H]1C(C)O (stereo partly drawn) 11.2%
O=C(NCCc1ccccc1)c1ccccc1NC(=O)C1CCCCC1C(=O)O (stereo not drawn) 3.51%
CCCc1nc2c(C)cc(Br)cn2c1Cc1ccc(OC)cc1C -12.5%
C[C@H](CO)N1C[C@H](C)[C@@H](CN(C)C(=O)Nc2ccc(C(F)(F)F)cc2)OCCCC[C@H](C)Oc2ccc(NC(=O)C3CCCCC3)cc2C1=O -6.54%
O=C(O)C[C@H]1C[C@@H]2c3cc(NC(=O)Cc4ccncc4)ccc3O[C@@H]2[C@@H](CO)O1 28.9% [at 21 µM]
CCCNC(=O)Nc1ccc2c(c1)C(=O)N(C)C[C@H](OC)[C@H](C)CN(C)[C@@H](C)CO2 -22.5%
COc1cc(CNc2nccn3ccnc23)cc(OC)c1 9.75%
Cc1noc(C)c1S(=O)(=O)N(C)C[C@@H]1OCCCC[C@H](C)Oc2ccc(NC(=O)NC(C)C)cc2C(=O)N([C@H](C)CO)C[C@H]1C -4.64% [at 21 µM]
COC(=O)c1cc2ccsc2n1Cc1ccccc1F -9.53%
COc1ccc(S(=O)(=O)N[C@H]2CC[C@@H](CCNC(=O)CN3CCOCC3)O[C@H]2CO)cc1 0.697%
CC(C)c1ccc(NC(=O)Nc2nc(C(N)c3ccccc3Cl)cs2)cc1 (stereo not drawn) -13.2%
CN(Cc1ccccc1)CC1CCCN(CCc2ccccc2F)C1 (stereo not drawn) 3.08%
CN(C)CC(=O)N1[C@H](CO)[C@@H](c2ccccc2)C12CN(C(=O)c1ccccc1)C2 -2.58%
CCCN1CCC(NC(=O)CC2C(=O)NCCN2Cc2cccc(OC)c2)CC1 (stereo not drawn) 7.2%
NS(=O)(=O)c1ccc(CCNC(=O)C2CCCN2C(=O)c2cccs2)cc1 (stereo not drawn) -11.5%
Cn1c(=O)n(C)c2cc(N3CCOCC3)c(NC(=O)c3ccc(F)cc3)cc21 21.4%
COc1cccc(NC(=O)CN(C)C(=O)CCCc2nc3ccccc3s2)c1 14.9%
Cc1ccc(S(=O)(=O)N2CCCNCC2)cc1 6.68%
COc1cccc(C(NC(C)=O)c2nc(/C=C/c3ccccc3)cs2)c1 (stereo not drawn) -2.97%
COc1ccc2o/c(=N\O)c(C(=O)Nc3ccc(C)cc3)cc2c1 21.5%
O=C(c1ccc(Cl)cc1)N1CCc2c([nH]c3ccccc23)C1C(F)(F)F (stereo not drawn) -6.34%
CCCCCNC(=O)c1[nH]c(C(F)(F)F)nc1-c1ccccc1 20.9%
O=C([C@@H]1[C@@H](CO)[C@@H]2Cn3c(cccc3=O)[C@H]1N2C(=O)CC1CC1)N1CCCCC1 3.41%
Cc1cc(=O)oc2cc(OCCSCCN3CCCC3)ccc12 -9.74%
CO[C@H]1CN(C)C(=O)c2cc(NC(=O)c3ccccc3F)ccc2OC[C@H](C)N(CC2CCOCC2)C[C@H]1C -20.3%
Cc1ccc(NC(=O)c2ccc3c(c2)OCO3)cc1Cl -1.6%
O=C(Cc1cn(Cc2ccccc2)c2ccccc12)Nc1ccc(Oc2cccnc2)cc1 -6.28%
Cc1cccc(C)c1-n1nnnc1C1(C)CCC(=O)N1Cc1cccs1 (stereo not drawn) -20.3%
CS(=O)(=O)N1[C@@H]2CNC[C@H]1C2c1ccc(-c2ccccc2)cc1 (stereo partly drawn) 1.08%
Cc1cccc(Cl)c1OCCN1CCCC1 -1.01%
Cc1ccccc1S(=O)(=O)N1[C@H](C#N)[C@H](c2ccccc2)[C@@H]1CO 7.31% [at 21 µM]
Cc1cccc(N(CC(=O)NC(C)(C)C)C(=O)CNC(=O)c2cccs2)c1C -10.1%
Cc1ccc(S(=O)(=O)N(C)C)cc1NC(=O)COC(=O)C1CCCC1 -13.6%
CNc1nc(Oc2cccc(NC(C)=O)c2)c2sccc2n1 6.08%
NC(=O)C1CCN(C(=O)C2(NC(=O)Nc3cccc(F)c3)CCCCC2)CC1 11.9%
Cc1cc(O)c(C(C)C)cc1NC(=O)c1ccccc1Cl -6.87%
COc1ccc(S(=O)(=O)Nc2cc3c4c(c2)CCN4C(=O)CC3)cc1 14.6%
OC(COC(c1ccc(F)cc1)c1ccc(F)cc1)CN1CCCC1 (stereo not drawn) 2.8%

Entries from the list above that contain an NH in an aromatic ring:
CPE protection (higher = active), inactive:
O=C(c1ccc(Cl)cc1)N1CCc2c([nH]c3ccccc23)C1C(F)(F)F (stereo not drawn) -6.34%
CCCCCNC(=O)c1[nH]c(C(F)(F)F)nc1-c1ccccc1 20.9%

— PubChem BioAssay AID687031 (Broad Institute, 2013)
